Publication doi:10.1101/2025.04.28.650977
No constants are given. Whether binding was seen depends on the method and setting. In cells and extracts the contact can be indirect.

Chains of the proteins cited; added tags and fusions are not shown.
UniProt O14543: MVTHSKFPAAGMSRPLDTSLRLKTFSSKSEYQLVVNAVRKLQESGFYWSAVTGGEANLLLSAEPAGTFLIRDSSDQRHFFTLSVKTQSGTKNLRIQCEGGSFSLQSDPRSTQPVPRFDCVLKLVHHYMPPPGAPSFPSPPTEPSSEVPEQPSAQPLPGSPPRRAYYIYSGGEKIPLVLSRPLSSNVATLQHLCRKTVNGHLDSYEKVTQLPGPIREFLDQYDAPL
UniProt Q8WXH5: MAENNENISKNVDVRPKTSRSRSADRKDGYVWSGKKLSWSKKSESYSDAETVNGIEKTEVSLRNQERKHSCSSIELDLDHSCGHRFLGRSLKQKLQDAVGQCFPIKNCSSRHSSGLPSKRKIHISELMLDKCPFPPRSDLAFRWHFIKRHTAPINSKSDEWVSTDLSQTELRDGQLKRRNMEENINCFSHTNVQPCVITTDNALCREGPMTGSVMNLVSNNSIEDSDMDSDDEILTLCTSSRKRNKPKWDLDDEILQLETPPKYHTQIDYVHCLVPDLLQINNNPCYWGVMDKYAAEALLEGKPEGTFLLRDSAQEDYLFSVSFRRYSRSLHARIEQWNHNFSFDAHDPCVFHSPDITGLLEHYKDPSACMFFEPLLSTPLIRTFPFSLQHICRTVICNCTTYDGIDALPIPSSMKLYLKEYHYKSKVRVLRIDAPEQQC
UniProt Q8WZ64: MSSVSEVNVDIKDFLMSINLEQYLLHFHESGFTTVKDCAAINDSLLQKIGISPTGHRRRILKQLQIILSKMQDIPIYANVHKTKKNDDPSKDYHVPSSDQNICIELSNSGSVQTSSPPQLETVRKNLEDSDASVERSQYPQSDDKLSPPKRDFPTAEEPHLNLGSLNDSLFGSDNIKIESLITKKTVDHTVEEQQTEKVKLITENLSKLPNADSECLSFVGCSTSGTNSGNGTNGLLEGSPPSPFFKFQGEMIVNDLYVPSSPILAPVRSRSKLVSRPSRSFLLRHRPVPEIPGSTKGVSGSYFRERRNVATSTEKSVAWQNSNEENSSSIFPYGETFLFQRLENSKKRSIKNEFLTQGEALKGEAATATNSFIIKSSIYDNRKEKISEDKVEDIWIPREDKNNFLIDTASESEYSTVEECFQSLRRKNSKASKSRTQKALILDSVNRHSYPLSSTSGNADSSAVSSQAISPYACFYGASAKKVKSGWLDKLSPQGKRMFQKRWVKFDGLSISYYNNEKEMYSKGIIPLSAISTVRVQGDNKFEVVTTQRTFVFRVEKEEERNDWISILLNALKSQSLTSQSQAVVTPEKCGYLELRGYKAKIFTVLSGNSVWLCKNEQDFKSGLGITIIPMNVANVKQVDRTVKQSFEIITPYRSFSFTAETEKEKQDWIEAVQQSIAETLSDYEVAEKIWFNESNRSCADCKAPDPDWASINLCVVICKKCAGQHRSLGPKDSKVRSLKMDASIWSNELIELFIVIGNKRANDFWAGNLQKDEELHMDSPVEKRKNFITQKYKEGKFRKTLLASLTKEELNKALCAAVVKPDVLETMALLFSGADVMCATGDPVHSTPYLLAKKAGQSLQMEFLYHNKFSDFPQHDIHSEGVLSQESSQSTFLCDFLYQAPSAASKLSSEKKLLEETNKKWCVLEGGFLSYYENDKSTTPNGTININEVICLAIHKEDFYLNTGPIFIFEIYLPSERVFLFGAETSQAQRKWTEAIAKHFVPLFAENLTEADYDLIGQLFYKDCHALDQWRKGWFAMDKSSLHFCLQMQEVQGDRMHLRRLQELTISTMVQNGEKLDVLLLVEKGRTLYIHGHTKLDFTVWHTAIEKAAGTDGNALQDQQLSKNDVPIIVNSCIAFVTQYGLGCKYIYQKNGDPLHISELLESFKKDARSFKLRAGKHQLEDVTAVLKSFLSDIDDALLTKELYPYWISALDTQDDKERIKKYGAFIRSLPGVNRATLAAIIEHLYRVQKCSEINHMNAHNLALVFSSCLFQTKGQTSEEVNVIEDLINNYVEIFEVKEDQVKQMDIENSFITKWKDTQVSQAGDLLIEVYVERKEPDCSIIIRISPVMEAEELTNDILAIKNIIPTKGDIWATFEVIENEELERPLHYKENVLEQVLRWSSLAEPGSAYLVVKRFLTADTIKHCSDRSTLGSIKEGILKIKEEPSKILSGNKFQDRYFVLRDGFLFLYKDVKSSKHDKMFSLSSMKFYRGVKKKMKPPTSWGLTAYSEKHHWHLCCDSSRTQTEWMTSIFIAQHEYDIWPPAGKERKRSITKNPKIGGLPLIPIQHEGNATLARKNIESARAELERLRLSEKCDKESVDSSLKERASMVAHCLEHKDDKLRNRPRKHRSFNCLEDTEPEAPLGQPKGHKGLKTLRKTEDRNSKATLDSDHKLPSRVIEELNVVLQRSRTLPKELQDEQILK

Legend:
[1] = biological target: full-length Flag-tagged SOCS3 (UniProt O14543); assay: co-IP
[2] = biological target: full-length Flag-tagged SOCS4 (UniProt Q8WXH5); assay: co-IP

- binding [1]: no binding
- binding [2]: no binding
Substance: ARAP2, endogenous in HEK293T cells (from UniProt Q8WZ64 1-1704)
